This note sets out measurements from paper doi:10.1101/2021.04.27.441574.

The target in this assay is T1, AzuC-SPA (E. coli) (UniProt C1P605).
T1 sequence: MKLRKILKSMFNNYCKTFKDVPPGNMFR
Kind of assay: affinity purification with mass spectrometry.

No constants are given. Whether binding was seen depends on the method and setting. Binding seen in cells or lysates may run through a third protein. A yes stands for co-enrichment or nearness to the bait. Other partners may have been found.

B1: aerobic glycerol 3-phosphate dehydrogenase (GlpD) (enzyme, UniProt P13035 1-501)
chain: METKDLIVIGGGINGAGIAADAAGRGLSVLMLEAQDLACATSSASSKLIHGGLRYLEHYEFRLVSEALAEREVLLKMAPHIAFPMRFRLPHRPHLRPAWMIRIGLFMYDHLGKRTSLPGSTGLRFGANSVLKPEIKRGFEYSDCWVDDARLVLANAQMVVRKGGEVLTRTRATSARRENGLWIVEAEDIDTGKKYSWQARGLVNATGPWVKQFFDDGMHLPSPYGIRLIKGSHIVVPRVHTQKQAYILQNEDKRIVFVIPWMDEFSIIGTTDVEYKGDPKAVKIEESEINYLLNVYNTHFKKQLSRDDIVWTYSGVRPLCDDESDSPQAITRDYTLDIHDENGKAPLLSVFGGKLTTYRKLAEHALEKLTPYYQGIGPAWTKESVLPGGAIEGDRDDYAARLRRRYPFLTESLARHYARTYGSNSELLLGNAGTVSDLGEDFGHEFYEAELKYLVDHEWVRRADDALWRRTKQGMWLNADQQSRVSQWLVEYTQQRLSLAS
In the case of B1, the binding entry is “binds”.
